Results are given in words; binding and its absence hold for the method and conditions named. Binding seen in cells or lysates may run through a third protein. Some binding calls cover weakened binding; strength is not graded here. Tags and fused reporters may be left off the sequences shown.
Biological target: T1, SWI3C-3×FLAG (Arabidopsis thaliana) (UniProt Q9XI07)
T1 sequence: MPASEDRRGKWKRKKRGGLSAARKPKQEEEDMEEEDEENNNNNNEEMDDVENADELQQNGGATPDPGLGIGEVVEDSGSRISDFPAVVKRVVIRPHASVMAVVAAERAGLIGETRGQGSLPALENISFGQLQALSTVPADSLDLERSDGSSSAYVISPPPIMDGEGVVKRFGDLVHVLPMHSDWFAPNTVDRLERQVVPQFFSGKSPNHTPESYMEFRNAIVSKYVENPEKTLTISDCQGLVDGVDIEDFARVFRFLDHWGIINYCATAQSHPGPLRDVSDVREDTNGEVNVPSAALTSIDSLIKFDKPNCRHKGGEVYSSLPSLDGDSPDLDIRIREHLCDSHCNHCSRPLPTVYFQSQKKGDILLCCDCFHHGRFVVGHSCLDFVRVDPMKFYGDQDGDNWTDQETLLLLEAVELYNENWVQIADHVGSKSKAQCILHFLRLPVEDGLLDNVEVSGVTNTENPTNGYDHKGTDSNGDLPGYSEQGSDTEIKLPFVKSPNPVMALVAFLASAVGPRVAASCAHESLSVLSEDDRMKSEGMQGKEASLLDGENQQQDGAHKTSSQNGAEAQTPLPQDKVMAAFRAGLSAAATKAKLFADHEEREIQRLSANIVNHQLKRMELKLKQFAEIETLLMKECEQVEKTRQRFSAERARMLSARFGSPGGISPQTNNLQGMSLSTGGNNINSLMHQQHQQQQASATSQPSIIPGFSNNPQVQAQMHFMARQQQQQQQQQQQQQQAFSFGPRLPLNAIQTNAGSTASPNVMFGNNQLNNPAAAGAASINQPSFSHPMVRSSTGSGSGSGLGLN
Assay: co-IP; Arabidopsis plants with SWI3C-3×FLAG and BRM-GFP, WT and bcl7a bcl7b backgrounds; co-IP with anti-FLAG antibody, immunoblot

Chains of the proteins cited; added tags and fusions are not shown.
UniProt Q6EVK6: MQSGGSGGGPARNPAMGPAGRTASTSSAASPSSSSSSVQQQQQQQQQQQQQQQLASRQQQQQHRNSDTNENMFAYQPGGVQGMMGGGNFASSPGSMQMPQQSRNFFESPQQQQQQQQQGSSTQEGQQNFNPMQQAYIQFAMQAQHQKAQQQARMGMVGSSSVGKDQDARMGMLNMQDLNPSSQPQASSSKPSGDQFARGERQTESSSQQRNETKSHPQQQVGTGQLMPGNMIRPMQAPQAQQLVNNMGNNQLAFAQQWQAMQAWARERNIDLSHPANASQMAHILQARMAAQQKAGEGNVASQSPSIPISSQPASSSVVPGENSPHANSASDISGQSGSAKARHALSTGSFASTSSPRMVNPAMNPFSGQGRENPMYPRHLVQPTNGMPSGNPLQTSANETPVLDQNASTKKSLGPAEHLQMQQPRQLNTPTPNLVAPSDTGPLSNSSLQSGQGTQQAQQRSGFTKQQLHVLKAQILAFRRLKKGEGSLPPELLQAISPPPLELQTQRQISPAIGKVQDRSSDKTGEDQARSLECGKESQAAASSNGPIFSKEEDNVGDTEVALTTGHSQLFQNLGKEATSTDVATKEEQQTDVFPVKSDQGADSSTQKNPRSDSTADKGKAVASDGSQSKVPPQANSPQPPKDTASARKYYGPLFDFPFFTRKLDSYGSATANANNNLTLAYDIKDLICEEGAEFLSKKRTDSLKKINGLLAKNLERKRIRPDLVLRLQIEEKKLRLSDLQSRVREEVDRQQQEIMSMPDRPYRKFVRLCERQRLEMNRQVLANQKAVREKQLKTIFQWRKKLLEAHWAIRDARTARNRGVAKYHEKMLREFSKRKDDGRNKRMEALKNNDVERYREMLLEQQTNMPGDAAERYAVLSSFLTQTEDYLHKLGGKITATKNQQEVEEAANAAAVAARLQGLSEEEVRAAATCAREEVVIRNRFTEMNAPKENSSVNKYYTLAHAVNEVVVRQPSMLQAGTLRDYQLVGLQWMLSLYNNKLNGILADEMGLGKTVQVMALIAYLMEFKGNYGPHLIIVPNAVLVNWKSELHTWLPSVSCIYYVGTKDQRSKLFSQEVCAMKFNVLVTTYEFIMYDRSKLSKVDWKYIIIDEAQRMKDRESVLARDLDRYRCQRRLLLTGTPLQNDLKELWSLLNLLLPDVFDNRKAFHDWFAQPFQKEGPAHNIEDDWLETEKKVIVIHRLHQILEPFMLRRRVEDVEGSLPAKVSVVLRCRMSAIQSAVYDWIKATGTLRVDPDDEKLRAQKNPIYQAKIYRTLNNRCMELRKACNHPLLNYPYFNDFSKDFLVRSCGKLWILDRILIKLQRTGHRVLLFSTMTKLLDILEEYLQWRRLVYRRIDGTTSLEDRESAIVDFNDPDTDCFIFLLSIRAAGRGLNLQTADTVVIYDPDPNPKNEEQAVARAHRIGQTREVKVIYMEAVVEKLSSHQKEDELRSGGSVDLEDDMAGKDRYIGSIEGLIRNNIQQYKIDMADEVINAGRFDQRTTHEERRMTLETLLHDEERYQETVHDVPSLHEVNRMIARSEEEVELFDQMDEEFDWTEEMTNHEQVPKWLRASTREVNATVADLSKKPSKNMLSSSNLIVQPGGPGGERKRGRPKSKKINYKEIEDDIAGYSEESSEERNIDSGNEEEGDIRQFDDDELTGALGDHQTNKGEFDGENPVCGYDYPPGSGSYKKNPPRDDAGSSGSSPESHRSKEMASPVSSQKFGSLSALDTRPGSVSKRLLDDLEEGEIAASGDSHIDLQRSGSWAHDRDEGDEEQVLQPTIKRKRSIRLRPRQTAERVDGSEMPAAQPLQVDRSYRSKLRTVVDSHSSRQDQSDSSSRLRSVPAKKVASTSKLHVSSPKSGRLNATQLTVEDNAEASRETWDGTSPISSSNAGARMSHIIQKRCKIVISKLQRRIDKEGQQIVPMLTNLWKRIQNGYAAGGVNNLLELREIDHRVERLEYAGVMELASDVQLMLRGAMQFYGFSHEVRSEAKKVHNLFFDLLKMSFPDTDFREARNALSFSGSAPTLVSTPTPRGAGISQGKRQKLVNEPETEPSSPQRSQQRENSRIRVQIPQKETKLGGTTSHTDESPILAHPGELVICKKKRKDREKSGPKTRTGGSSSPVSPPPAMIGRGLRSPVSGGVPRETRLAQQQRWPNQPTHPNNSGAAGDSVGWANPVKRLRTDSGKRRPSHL

binding: binds
Substance: BRM-GFP (from UniProt Q6EVK6 1-2193)

From article PMC10830565 (2024)
